Here are results for two substances from PMC3958307.

Protein sequences, listed by entry. Tags and fused reporters are not part of them.
UniProt Q02248: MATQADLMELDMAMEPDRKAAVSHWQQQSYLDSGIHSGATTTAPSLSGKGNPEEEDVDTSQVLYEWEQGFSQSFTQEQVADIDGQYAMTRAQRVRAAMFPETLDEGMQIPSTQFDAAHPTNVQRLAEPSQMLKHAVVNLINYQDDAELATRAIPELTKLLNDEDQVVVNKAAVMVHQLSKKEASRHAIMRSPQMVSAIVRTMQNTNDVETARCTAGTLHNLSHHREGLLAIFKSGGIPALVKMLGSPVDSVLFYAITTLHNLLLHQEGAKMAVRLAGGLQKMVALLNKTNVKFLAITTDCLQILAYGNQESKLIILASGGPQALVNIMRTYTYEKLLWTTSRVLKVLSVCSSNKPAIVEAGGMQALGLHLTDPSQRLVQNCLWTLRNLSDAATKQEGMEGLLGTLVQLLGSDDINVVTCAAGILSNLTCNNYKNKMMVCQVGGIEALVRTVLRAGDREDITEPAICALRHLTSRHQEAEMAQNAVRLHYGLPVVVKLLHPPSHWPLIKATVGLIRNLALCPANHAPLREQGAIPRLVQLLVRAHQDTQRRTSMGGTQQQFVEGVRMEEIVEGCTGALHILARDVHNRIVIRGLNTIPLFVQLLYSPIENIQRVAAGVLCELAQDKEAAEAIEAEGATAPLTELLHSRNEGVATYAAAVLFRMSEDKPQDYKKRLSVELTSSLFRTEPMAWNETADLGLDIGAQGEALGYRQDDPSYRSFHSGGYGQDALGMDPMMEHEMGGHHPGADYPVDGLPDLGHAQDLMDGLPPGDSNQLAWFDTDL
UniProt Q3TKT4: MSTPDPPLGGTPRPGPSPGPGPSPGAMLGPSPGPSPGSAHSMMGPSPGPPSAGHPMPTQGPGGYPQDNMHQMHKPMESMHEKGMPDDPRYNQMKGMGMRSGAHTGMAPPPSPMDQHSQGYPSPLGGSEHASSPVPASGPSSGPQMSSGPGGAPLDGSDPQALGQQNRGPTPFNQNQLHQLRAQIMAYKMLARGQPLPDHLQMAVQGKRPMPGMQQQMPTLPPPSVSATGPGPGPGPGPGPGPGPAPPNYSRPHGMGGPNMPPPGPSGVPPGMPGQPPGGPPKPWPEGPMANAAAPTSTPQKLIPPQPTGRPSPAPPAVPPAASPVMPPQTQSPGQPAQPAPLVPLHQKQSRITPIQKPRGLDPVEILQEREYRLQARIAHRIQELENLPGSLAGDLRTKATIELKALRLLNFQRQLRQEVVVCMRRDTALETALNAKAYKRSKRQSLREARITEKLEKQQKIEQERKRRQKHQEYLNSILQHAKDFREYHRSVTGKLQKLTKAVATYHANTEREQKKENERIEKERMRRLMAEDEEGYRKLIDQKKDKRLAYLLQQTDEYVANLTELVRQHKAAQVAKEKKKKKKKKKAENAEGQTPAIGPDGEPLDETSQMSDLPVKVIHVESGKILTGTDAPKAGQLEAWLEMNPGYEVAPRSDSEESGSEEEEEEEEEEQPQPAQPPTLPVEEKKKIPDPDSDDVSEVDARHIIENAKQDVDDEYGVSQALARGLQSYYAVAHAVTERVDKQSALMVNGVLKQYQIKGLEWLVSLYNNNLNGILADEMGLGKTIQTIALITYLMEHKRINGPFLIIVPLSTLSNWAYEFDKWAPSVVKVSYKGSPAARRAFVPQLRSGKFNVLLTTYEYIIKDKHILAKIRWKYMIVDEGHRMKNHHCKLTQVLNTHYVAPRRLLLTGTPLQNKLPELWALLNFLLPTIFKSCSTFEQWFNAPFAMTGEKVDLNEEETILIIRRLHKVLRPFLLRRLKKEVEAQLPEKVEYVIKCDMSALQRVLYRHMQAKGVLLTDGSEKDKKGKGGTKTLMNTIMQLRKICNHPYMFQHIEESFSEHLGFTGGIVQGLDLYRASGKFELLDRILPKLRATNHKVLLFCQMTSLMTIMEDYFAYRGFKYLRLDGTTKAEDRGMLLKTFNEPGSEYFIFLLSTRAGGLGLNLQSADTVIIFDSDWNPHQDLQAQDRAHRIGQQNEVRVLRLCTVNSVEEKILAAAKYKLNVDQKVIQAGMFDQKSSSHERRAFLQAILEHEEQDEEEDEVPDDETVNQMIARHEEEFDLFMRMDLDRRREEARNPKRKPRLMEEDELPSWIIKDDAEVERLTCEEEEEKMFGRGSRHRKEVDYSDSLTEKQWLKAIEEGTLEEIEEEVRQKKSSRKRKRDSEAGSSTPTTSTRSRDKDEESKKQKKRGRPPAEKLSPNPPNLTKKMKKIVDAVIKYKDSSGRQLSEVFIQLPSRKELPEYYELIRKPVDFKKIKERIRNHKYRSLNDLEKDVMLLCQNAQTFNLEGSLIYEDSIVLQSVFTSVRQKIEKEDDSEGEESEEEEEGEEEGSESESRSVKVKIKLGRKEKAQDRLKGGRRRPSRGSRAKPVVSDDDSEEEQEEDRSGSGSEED

Test [1] has as its target β-catenin (mouse (endogenous in BMMSCs)) (UniProt Q02248). The test is described as follows: co-IP; nuclear proteins extracted from mouse BMMSCs (WT and TERT-/-), immunoprecipitated with TERT or β-catenin polyclonal antibodies, captured complexes analysed by Western blotting. (A western blot detects proteins with antibodies after separation by electrophoresis.)
The target of test [2] is T1, Telomerase reverse transcriptase (mouse (endogenous in BMMSCs)) (UniProt O70372).
T1 sequence: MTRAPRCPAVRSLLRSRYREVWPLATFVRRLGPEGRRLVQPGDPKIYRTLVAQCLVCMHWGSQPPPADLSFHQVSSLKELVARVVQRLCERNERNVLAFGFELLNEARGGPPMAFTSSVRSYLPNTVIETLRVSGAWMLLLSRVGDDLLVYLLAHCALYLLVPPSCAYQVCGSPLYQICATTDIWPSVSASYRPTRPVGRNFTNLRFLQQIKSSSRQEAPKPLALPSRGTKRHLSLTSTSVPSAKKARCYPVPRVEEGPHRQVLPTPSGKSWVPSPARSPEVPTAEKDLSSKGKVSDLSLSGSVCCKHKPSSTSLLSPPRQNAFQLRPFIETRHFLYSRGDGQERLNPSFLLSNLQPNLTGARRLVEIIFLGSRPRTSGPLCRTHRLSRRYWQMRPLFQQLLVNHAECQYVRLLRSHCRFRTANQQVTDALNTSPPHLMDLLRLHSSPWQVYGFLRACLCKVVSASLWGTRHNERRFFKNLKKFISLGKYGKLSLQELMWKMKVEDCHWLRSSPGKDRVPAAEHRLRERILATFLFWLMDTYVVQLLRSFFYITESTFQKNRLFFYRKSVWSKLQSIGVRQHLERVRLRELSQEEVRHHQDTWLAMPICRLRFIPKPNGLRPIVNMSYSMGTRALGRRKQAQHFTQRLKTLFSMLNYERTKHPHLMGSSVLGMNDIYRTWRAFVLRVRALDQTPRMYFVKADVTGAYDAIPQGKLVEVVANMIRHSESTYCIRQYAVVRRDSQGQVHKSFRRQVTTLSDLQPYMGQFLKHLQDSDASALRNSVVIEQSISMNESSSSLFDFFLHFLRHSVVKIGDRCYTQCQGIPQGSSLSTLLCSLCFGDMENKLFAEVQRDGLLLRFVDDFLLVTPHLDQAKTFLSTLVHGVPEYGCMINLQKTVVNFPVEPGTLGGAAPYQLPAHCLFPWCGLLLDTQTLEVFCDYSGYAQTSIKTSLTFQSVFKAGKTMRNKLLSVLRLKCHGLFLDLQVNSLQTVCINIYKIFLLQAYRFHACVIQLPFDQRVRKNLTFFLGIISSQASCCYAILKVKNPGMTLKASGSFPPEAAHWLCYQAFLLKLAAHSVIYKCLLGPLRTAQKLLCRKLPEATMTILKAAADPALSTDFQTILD
Described as above.

No constants are given. Whether binding was seen depends on the method and setting. Binding seen in cells or lysates may run through a third protein. Some entries that bind do so weakly or less than the wild type.

For the substance BRG1 (from UniProt Q3TKT4 1-1613), the binding result in test [1] and in test [2] was “binds” throughout.
On to β-catenin (from UniProt Q02248 1-781), for which the binding result in test [2] is “binds”.
